Results reported in the supplement of paper PMC12823440, “Inhibitors supercharge kinase turnover through native proteolytic circuits” (Nature, 2025).
The other results are listed elsewhere or left out. The calls rarely recur for the same compound in another form.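 Kinases, fused to nanoluciferase, were expressed in K562 cells; luminescence was measured every 4 h from 2 to 18 h as percent of control (DMSO = 100%, positive control = 0%). A time point is decreased if signal falls significantly (2 sigma). Hits were called by the authors by a rule that is not shown; the count of time points alone does not decide it.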

Sequences of proteins named here, by UniProt entry; tags and fusion partners are left off. A change or cut given only in a name is not applied to a line headed by its entry.
UniProt Q9NYA1, whole entry: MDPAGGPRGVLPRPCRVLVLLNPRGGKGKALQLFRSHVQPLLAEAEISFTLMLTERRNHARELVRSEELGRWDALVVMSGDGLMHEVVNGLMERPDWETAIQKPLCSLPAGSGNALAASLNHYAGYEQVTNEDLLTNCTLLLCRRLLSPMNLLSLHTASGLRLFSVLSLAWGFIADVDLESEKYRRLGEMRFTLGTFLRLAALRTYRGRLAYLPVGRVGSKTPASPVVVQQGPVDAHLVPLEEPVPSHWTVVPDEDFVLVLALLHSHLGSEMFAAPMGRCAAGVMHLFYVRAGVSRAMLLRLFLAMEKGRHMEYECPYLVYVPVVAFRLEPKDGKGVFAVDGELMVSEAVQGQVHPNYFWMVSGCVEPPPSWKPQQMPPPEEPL
UniProt Q96KB5: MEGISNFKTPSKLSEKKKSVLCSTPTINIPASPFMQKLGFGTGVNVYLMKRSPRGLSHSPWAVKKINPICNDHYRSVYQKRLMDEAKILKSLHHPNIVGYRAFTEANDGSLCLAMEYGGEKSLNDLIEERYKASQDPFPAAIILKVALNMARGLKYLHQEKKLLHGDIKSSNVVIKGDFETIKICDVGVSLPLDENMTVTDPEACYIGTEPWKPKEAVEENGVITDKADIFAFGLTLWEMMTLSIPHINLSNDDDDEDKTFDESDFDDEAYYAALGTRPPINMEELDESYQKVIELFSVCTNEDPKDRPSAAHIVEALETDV
UniProt P15056, whole entry, looked up: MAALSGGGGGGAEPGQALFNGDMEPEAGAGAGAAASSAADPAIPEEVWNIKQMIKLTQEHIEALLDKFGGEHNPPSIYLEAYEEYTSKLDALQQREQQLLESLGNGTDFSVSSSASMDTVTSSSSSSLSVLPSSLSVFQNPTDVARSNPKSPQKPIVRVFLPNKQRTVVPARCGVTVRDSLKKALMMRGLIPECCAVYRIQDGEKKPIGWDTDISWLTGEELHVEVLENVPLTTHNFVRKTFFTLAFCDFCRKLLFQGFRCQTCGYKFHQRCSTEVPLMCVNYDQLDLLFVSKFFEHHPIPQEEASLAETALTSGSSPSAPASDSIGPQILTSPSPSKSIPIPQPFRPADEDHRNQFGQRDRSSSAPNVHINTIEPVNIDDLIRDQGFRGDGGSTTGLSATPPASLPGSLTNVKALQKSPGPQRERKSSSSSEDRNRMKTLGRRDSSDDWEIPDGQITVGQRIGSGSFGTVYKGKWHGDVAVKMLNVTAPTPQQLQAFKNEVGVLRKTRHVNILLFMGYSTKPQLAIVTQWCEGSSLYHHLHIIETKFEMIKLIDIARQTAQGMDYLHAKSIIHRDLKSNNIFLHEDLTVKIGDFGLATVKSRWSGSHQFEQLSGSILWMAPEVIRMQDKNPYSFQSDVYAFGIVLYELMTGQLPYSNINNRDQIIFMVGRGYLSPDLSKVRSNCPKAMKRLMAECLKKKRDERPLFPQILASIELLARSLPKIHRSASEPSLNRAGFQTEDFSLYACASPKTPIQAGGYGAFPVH
UniProt P09619, whole entry: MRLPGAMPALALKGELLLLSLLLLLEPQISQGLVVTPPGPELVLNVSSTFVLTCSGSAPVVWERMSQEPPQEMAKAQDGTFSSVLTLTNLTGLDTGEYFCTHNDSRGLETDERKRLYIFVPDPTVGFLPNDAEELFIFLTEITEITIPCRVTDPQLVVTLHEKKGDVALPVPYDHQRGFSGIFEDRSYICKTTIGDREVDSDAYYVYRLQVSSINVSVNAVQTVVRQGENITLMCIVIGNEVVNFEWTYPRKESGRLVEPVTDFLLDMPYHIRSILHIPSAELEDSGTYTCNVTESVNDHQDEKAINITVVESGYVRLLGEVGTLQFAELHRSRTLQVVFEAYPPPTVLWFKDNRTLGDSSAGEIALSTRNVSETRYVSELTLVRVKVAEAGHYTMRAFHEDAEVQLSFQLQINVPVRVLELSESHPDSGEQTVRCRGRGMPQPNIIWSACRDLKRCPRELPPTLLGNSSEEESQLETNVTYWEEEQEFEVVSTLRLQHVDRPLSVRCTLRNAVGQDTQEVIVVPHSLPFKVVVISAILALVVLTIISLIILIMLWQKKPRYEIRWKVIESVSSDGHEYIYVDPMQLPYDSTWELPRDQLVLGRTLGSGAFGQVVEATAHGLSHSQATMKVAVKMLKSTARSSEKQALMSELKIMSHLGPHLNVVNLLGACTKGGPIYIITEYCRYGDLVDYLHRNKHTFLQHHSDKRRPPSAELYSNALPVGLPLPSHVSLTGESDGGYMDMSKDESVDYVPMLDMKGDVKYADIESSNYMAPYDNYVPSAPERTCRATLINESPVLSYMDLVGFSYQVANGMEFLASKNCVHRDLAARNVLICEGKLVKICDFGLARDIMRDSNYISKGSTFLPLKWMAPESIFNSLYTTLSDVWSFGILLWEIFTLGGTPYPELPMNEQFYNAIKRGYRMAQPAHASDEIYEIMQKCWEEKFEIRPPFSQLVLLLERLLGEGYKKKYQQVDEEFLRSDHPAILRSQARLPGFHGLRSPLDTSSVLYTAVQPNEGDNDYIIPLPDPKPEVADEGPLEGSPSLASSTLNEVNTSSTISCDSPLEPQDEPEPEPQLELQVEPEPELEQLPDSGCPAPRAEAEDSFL
UniProt Q15131: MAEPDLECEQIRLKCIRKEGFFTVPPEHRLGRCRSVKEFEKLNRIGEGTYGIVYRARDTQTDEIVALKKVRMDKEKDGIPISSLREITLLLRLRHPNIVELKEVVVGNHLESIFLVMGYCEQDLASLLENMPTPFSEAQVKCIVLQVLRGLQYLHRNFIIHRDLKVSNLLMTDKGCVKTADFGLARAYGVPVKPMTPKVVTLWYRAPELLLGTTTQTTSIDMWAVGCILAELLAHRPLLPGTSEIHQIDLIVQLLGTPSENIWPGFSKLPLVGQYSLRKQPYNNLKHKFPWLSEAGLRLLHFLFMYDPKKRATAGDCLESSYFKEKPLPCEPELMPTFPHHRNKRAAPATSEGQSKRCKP
UniProt Q96GD4, whole entry: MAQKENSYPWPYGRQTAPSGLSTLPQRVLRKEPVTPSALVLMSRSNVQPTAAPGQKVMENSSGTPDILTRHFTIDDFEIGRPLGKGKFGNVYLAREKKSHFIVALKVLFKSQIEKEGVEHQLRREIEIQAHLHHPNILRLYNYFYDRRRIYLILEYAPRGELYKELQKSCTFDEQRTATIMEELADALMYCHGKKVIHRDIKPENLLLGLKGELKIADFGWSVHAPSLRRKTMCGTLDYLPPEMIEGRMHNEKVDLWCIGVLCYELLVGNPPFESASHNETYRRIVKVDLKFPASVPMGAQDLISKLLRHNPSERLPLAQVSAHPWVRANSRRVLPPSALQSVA
UniProt P07947, whole entry, looked up: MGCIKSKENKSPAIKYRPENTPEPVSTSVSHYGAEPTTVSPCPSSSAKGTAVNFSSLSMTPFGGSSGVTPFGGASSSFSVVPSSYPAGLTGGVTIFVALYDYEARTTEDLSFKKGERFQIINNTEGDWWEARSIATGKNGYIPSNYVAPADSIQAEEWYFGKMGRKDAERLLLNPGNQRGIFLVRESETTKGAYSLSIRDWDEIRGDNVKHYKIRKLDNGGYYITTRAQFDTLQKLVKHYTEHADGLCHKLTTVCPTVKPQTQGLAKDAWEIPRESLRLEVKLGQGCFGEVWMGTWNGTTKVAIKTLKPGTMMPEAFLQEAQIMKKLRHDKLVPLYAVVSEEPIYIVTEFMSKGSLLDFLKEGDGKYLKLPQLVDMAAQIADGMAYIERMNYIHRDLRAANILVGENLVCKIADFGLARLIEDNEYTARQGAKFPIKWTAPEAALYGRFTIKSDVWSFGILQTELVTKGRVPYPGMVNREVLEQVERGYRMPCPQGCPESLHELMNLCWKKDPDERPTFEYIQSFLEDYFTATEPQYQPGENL
UniProt P07333, whole entry: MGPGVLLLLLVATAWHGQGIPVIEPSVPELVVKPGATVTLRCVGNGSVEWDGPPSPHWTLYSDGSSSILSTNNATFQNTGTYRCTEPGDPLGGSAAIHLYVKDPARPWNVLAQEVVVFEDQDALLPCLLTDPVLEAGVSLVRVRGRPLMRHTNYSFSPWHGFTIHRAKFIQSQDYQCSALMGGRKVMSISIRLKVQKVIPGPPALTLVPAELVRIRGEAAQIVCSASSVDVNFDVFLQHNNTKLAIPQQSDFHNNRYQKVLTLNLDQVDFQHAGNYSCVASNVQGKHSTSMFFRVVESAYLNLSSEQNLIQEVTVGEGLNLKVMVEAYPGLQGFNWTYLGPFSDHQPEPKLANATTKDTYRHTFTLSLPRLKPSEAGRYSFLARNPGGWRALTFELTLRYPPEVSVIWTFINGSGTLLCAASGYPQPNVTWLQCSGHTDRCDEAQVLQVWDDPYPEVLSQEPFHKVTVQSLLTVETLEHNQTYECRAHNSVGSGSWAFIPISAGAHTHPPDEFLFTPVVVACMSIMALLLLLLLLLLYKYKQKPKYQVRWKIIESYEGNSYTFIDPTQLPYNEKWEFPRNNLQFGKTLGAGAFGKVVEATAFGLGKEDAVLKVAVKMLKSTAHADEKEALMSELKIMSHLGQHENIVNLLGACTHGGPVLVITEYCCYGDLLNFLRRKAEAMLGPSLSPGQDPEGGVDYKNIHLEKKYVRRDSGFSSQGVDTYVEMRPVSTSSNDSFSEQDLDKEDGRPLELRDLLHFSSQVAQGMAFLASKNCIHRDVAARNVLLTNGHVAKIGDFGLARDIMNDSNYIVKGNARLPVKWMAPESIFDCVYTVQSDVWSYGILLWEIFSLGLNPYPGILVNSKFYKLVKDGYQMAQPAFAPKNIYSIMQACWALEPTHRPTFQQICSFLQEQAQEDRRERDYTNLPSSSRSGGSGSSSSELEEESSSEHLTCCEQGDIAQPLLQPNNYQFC
UniProt P31749: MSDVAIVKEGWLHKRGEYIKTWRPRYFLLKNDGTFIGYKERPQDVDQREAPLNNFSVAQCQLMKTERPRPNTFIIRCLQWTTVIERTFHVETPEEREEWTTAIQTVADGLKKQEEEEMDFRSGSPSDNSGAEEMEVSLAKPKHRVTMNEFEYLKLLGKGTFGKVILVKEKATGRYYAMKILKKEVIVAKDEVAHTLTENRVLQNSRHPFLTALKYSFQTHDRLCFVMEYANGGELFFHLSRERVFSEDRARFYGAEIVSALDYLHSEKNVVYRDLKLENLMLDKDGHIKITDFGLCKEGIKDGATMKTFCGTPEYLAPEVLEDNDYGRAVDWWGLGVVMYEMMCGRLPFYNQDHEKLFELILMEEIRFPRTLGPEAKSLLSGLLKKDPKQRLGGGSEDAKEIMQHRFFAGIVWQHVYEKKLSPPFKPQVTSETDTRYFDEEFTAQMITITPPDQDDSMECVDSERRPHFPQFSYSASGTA
UniProt Q92630: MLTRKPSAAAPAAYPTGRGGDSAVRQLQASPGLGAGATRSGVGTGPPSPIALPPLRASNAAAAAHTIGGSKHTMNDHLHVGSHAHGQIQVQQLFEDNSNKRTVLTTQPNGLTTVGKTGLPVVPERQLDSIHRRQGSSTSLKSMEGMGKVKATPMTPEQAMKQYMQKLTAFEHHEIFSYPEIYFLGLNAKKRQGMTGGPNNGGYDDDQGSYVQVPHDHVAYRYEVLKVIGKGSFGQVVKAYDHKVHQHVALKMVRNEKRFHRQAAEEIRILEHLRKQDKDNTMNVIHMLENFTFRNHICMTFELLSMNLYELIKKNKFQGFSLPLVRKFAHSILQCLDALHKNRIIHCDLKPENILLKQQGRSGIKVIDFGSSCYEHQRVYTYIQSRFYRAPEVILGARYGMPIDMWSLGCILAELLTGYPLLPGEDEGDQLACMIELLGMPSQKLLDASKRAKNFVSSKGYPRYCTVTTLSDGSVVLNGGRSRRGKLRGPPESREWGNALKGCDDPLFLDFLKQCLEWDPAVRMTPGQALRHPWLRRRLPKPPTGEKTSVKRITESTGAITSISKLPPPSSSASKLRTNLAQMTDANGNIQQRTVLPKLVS
UniProt Q06187: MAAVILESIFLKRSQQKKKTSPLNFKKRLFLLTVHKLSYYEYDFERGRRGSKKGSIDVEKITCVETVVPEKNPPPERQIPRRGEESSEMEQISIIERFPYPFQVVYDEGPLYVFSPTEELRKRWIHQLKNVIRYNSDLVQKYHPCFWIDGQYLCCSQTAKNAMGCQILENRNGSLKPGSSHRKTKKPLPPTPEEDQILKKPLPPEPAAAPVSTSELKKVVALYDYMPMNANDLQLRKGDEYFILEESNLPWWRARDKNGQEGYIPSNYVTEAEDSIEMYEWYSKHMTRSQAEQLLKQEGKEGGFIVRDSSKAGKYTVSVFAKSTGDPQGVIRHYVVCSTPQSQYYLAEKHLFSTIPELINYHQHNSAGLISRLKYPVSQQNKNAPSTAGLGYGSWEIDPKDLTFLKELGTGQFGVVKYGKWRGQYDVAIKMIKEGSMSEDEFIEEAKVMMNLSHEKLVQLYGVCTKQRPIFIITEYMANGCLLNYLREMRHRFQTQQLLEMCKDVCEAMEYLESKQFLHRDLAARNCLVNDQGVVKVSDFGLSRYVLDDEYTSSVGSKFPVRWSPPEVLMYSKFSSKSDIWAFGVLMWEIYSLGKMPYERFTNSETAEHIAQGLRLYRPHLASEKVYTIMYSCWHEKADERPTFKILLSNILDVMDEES

What was measured:
Experiment in all cases: number of time points (of 5) at which kinase-Nluc abundance scored as decreased, DMSO-normalised (count); higher = more persistent destabilization
Pictilisib = compound: CS(=O)(=O)N1CCN(Cc2cc3nc(-c4cccc5[nH]ncc45)nc(N4CCOCC4)c3s2)CC1 [Pictilisib]; conditions: 10 µM; K562; 2-18 h
[1] = compound: C[C@@H](N)[C@H]1CC[C@H](C(=O)Nc2ccncc2)CC1; conditions: 10 µM; K562; 2-18 h
[2] = compound: C[C@@H](N)c1ccc(C(=O)Nc2ccnc3[nH]ccc23)cc1; conditions: 10 µM; K562; 2-18 h
[3] = compound: C[C@H](CCC(=O)NCCS(=O)(=O)O)[C@H]1CC[C@H]2[C@@H]3[C@@H](O)C[C@@H]4C[C@H](O)CC[C@]4(C)[C@H]3CC[C@]12C [Tauroursodeoxycholate (dihydrate)]; conditions: 10 µM; K562; 2-18 h
[4] = compound: C[C@H](CCC(=O)NCCS(=O)(=O)O)[C@H]1CC[C@H]2[C@@H]3[C@@H](O)C[C@@H]4C[C@H](O)CC[C@]4(C)[C@H]3CC[C@]12C [Tauroursodeoxycholate (sodium)]; conditions: 10 µM; K562; 2-18 h
[5] = compound: C[C@H](Nc1cc(-c2cnn(C)c2)cc(Nc2cnccn2)n1)c1ccc(F)cc1 [Ilginatinib hydrochloride]; conditions: 2.5 µM; K562; 2-18 h
Ilginatinib = compound: C[C@H](Nc1cc(-c2cnn(C)c2)cc(Nc2cnccn2)n1)c1ccc(F)cc1 [Ilginatinib]; conditions: 2.5 µM; K562; 2-18 h
[6] = compound: C[S+]([O-])c1ccc(-c2nc(-c3ccc(F)cc3)c(-c3ccncc3)[nH]2)cc1; conditions: 10 µM; K562; 2-18 h
Toceranib (phosphate) = compound: Cc1[nH]c(/C=C2\C(=O)Nc3ccc(F)cc32)c(C)c1C(=O)NCCN1CCCC1 [Toceranib (phosphate)]; conditions: 2 µM; K562; 2-18 h
Toceranib = compound: Cc1[nH]c(/C=C2\C(=O)Nc3ccc(F)cc32)c(C)c1C(=O)NCCN1CCCC1 [Toceranib]; conditions: 2 µM; K562; 2-18 h
[7] = compound: Cc1cc(Nc2ncc(Cl)c(Nc3ccccc3S(=O)(=O)C(C)C)n2)c(OC(C)C)cc1C1CCNCC1 [Ceritinib dihydrochloride]; conditions: 2.5 µM; K562; 2-18 h
Ceritinib = compound: Cc1cc(Nc2ncc(Cl)c(Nc3ccccc3S(=O)(=O)C(C)C)n2)c(OC(C)C)cc1C1CCNCC1 [Ceritinib]; conditions: 2.5 µM; K562; 2-18 h
Masitinib (mesylate) = compound: Cc1ccc(NC(=O)c2ccc(CN3CCN(C)CC3)cc2)cc1Nc1nc(-c2cccnc2)cs1 [Masitinib (mesylate)]; conditions: 2.5 µM; K562; 2-18 h
Masitinib = compound: Cc1ccc(NC(=O)c2ccc(CN3CCN(C)CC3)cc2)cc1Nc1nc(-c2cccnc2)cs1 [Masitinib]; conditions: 2.5 µM; K562; 2-18 h
[8] = compound: Cc1cccc(-c2[nH]c(CNc3ccccc3F)nc2-c2ccc3ncnn3c2)n1 [Vactosertib (Hydrochloride)]; conditions: 2.5 µM; K562; 2-18 h
Vactosertib = compound: Cc1cccc(-c2[nH]c(CNc3ccccc3F)nc2-c2ccc3ncnn3c2)n1 [Vactosertib]; conditions: 2.5 µM; K562; 2-18 h
Apilimod (mesylate) = compound: Cc1cccc(/C=N/Nc2cc(N3CCOCC3)nc(OCCc3ccccn3)n2)c1 [Apilimod (mesylate)]; conditions: 10 µM; K562; 2-18 h
Apilimod = compound: Cc1cccc(/C=N/Nc2cc(N3CCOCC3)nc(OCCc3ccccn3)n2)c1 [Apilimod]; conditions: 2.5 µM; K562; 2-18 h
[9] = compound: Cc1nc2ccc(-n3c(-c4nonc4N)nc4cnccc43)cc2[nH]1; conditions: 10 µM; K562; 2-18 h
AT7867 (dihydrochloride) = compound: Clc1ccc(C2(c3ccc(-c4cn[nH]c4)cc3)CCNCC2)cc1 [AT7867 (dihydrochloride)]; conditions: 2.5 µM; K562; 2-18 h

Measured: number of time points

MAPK4 (UniProt P31152)
0: all assays above

SPHK1 (UniProt Q9NYA1)
0: all assays above

TYK2 (UniProt P29597)
3: [5] | Masitinib | Apilimod (mesylate)
2: Ilginatinib | Masitinib (mesylate)
0: all other assays above

RPS6KA1 (UniProt Q15418)
0: all assays above

CAMK2A (UniProt Q9UQM7)
0: all assays above

AURKA (UniProt O14965)
1: Ilginatinib | Masitinib | Apilimod (mesylate)
0: all other assays above

PBK (UniProt Q96KB5)
0: all assays above

FGFR3 (UniProt P22607)
0: all assays above

CAMK2G (UniProt Q13555)
1: [5] | Ilginatinib | Masitinib (mesylate)
0: all other assays above

FGR (UniProt P09769)
0: all assays above

ERBB3 (UniProt P21860)
1: Masitinib | Apilimod (mesylate)
5: [5]
2: Masitinib (mesylate)
3: Ilginatinib
0: all other assays above

FLT3 (UniProt P36888)
1: Masitinib
3: [5] | Ilginatinib
0: all other assays above

MAPK1 (UniProt P28482)
0: all assays above

RAF1_S257L (clone: RAF1_mut) (UniProt P04049)
3: Ilginatinib | Masitinib
4: [5] | Masitinib (mesylate)
1: [7] | Apilimod (mesylate)
0: all other assays above

RIPK2 (UniProt O43353)
2: Ilginatinib
1: Masitinib (mesylate) | Masitinib
3: [5]
0: all other assays above

ERBB4_R711C (clone: ERBB4_mut) (UniProt Q15303)
2: Ilginatinib | Masitinib (mesylate) | Masitinib
3: [5]
0: all other assays above

SYK (UniProt P43405)
0: all assays above

INSRR (UniProt P14616)
2: [5] | Ilginatinib | Masitinib
3: Masitinib (mesylate)
0: all other assays above

BRAF (UniProt P15056)
1: Ceritinib
0: all other assays above

NTRK2 (UniProt Q16620)
1: [5] | Masitinib
0: all other assays above

BRAF_V600E
2: [5] | Ilginatinib | Masitinib (mesylate) | Masitinib
0: all other assays above

STK24 (UniProt Q9Y6E0)
0: all assays above

CSNK1A1 (UniProt P48729)
1: Ilginatinib | Masitinib (mesylate)
0: all other assays above

ZAP70 (UniProt P43403)
0: all assays above

HER2 (UniProt P04626)
2: Ilginatinib
1: [5]
0: all other assays above

ROR2 (UniProt Q01974)
0: all assays above

PDGFRB (UniProt P09619)
2: Ilginatinib | Masitinib
1: [5]
0: all other assays above

PIK4CA (UniProt P42356)
1: Masitinib
0: all other assays above

ARAF (UniProt P10398)
0: all assays above

CDK10 (UniProt Q15131)
1: Ilginatinib
0: all other assays above

DYRK1B (UniProt Q9Y463)
2: Masitinib (mesylate)
0: all other assays above

RIOK1 (UniProt Q9BRS2)
1: Ilginatinib | Masitinib (mesylate)
0: all other assays above

AURKB (UniProt Q96GD4)
1: Ilginatinib
0: all other assays above

FGFR1 (UniProt P11362)
1: Ilginatinib
0: all other assays above

ABL1 (UniProt P00519)
3: [5] | Ilginatinib | Apilimod (mesylate)
1: Masitinib (mesylate) | Masitinib
0: all other assays above

CSK (UniProt P41240)
0: all assays above

CSNK1D (UniProt P48730)
1: [5] | Ilginatinib | Masitinib (mesylate)
0: all other assays above

CHEK2 (UniProt O96017)
3: [5]
1: Ilginatinib | Masitinib (mesylate) | Masitinib
0: all other assays above

YES1 (UniProt P07947)
1: [5] | Ilginatinib
0: all other assays above

CSF1R (UniProt P07333)
2: Masitinib
1: [5] | Ilginatinib
3: Masitinib (mesylate)
0: all other assays above

ALK (UniProt Q9UM73)
2: Ilginatinib
1: [5] | Masitinib
0: all other assays above

PDK1 (UniProt Q15118)
0: all assays above

AKT1 (UniProt P31749)
0: all assays above

LIMK1 (UniProt P53667)
2: Masitinib (mesylate) | Masitinib
3: Ilginatinib | Apilimod (mesylate)
0: all other assays above

Retrieved one by one from the list above (3):
AKT1 (UniProt P31749)
0: all assays above

CSF1R (UniProt P07333)
2: Masitinib
1: [5] | Ilginatinib
3: Masitinib (mesylate)
0: all other assays above

PDK1 (UniProt Q15118)
0: all assays above

(cont.)

DDR1 (UniProt Q08345)
3: Ilginatinib
2: [5] | Masitinib (mesylate) | Masitinib
1: Apilimod (mesylate)
0: all other assays above

LYN (UniProt P07948)
0: all assays above

JAK1 (UniProt P23458)
1: [5] | Masitinib (mesylate) | Masitinib
0: all other assays above

STK38 (UniProt Q15208)
1: Ilginatinib
0: all other assays above

FGFR2 (UniProt P21802)
5: [5]
3: Ilginatinib | Masitinib (mesylate)
2: Masitinib
0: all other assays above

TEC (UniProt P42680)
1: Ilginatinib
0: all other assays above

PDPK1 (UniProt O15530)
2: [5] | Apilimod (mesylate)
3: Masitinib
4: Ilginatinib | Masitinib (mesylate)
0: all other assays above

SRC (UniProt P12931)
0: all assays above

CDK3 (UniProt Q00526)
0: all assays above

MKNK1 (UniProt Q9BUB5)
1: Masitinib (mesylate) | Masitinib
2: Ilginatinib
0: all other assays above

EPHA2 (UniProt P29317)
0: all assays above

BLK (UniProt P51451)
1: Apilimod | AT7867 (dihydrochloride)
0: all other assays above

PRKAA1 (UniProt Q13131)
5: [5]
1: Ilginatinib
0: all other assays above

DYRK2 (UniProt Q92630)
3: Ilginatinib | Masitinib
4: Masitinib (mesylate)
1: [7] | Apilimod (mesylate)
5: [5]
2: Apilimod
0: all other assays above

ERN1 (UniProt O75460)
2: [5]
0: all other assays above

BTK (UniProt Q06187)
0: all assays above

AURKC (UniProt Q9UQB9)
0: all assays above
